PubChem BioAssay AID1224828, NIAID | 2016
Here is an unselected part of about 17,000 reagents. 762 of them (4.5%) were called active. 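Active calls include both raised and lowered p65 entry, mostly lowered; wells with fewer than 50 cells lack a z-score.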 Raw values vary from plate to plate and are shown uncorrected. Entries without a mark were called inactive.

Purpose: 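Regulators linking TLR4 signalling to p65 nuclear translocation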 (primary screen)
System: mouse RAW264.7 G9 macrophage reporter cells (GFP-p65, Tnf promoter-mCherry)
Knock-down reagent: siRNA pool against mouse genes, 100 nM
Duration: 2 days siRNA transfection, then 40 min LPS before fixation
Challenge: LPS (Salmonella minnesota R595) at 10 ng/ml
Read-out: 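Imaged p65 nuclear translocation ratio, normalised to the plate median, converted to robust z-scores and averaged across two replicates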
Reading the numbers: p65 translocation robust z-score: higher = more nuclear NF-kappaB p65 after LPS than the plate median; nuclear/cytoplasmic p65 ratio: higher = more nuclear NF-kappaB p65
Active means: 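Active if robust z is above 3.3 (negative regulators) or below -1.56, the Tlr4 control median (positive regulators); activity score 50 or more; control wells not called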
Meaning of the calls: active = hit (p65 shift raised or lowered); inactive = no clear change

gene | p65 translocation robust z-score | nuclear/cytoplasmic p65 ratio, rep 1 | nuclear/cytoplasmic p65 ratio, rep 2 | low cell count flag
Parp2 | 0.19 | 1.68 | 1.61 | enough cells to score
Aldoart1 | 0.09 | 1.27 | 1.14 | enough cells to score
Kcnk2 | -1.82 (active) | 1.28 | 1.2 | enough cells to score
Perm1 | – | 1.17 | 1.15 | fewer than 50 cells per well; well left out of scoring
Ssx2ip | 0.09 | 1.39 | 1.27 | enough cells to score
Or5aq1 | -2.52 (active) | 1.2 | 1.27 | enough cells to score
Slc25a38 | -0.86 | 1.44 | 1.71 | enough cells to score
Nrn1 | -0.09 | 1.8 | 1.44 | enough cells to score
Pde4b | 0.83 | 1.57 | 1.52 | enough cells to score
Rad51d | -0.9 | 1.45 | 1.33 | enough cells to score
Tas2r110 | – | 1.66 | 1.16 | fewer than 50 cells per well; well left out of scoring
Cep70 | -0.59 | 1.38 | 1.41 | enough cells to score
Zfp280c | -0.56 | 1.37 | 1.15 | enough cells to score
B2m | -1.07 | 1.48 | 1.43 | enough cells to score
Slc15a1 | 0.1 | 1.43 | 1.26 | enough cells to score
Slc6a1 | 1.37 | 1.56 | 1.43 | enough cells to score
Prdm8 | 0.56 | 1.62 | 1.78 | enough cells to score
Prrc2b | 0.05 | 1.37 | 1.57 | enough cells to score
Ces1d | 0.5 | 1.38 | 1.44 | enough cells to score
Pzp2 | 0.25 | 1.44 | 1.22 | enough cells to score
Slc16a3 | -0.23 | 1.36 | 1.24 | enough cells to score
Pdpk1 | 0.83 | 1.76 | 1.53 | enough cells to score
Usp13 | 0.9 | 1.78 | 1.71 | enough cells to score
Paox | -0.73 | 1.41 | 1.1 | enough cells to score
Arvcf | -0.05 | 1.61 | 1.61 | enough cells to score
Gapdhs | -1.89 (active) | 1.3 | 1.2 | enough cells to score
Rpp21 | 0.68 | 1.5 | 1.31 | enough cells to score
Samd4b | 1.91 | 1.73 | 1.75 | enough cells to score
Ddr2 | -0.16 | 1.56 | 1.44 | enough cells to score
Cnot2 | 2.98 | 1.88 | 1.75 | enough cells to score
Flt3 | 0.74 | 1.9 | 1.4 | enough cells to score
Bckdha | -0.25 | 1.57 | 1.58 | enough cells to score
Vmn1r202 | 0.81 | 1.62 | 1.32 | enough cells to score
Cops2 | 1.35 | 1.66 | 1.55 | enough cells to score
Cdk3 | -1.07 | 1.51 | 1.53 | enough cells to score
Nme3 | -0.63 | 1.63 | 1.3 | enough cells to score
Adamts20 | -0.46 | 1.51 | 1.59 | enough cells to score
Or7d9 | -0.45 | 1.57 | 1.33 | enough cells to score
Prkacb | 0.09 | 1.7 | 1.39 | enough cells to score
Comt | 0.01 | 1.48 | 1.38 | enough cells to score
Ralgds | 0.21 | 1.66 | 1.44 | enough cells to score
Rhof | -0.89 | 1.47 | 1.31 | enough cells to score
Tnfrsf11a | 0.82 | 1.62 | 1.65 | enough cells to score
Klhl26 | -0.34 | 1.35 | 1.51 | enough cells to score
Tlx1 | -0.95 | 1.42 | 1.35 | enough cells to score
Gbx1 | -1.41 | 1.37 | 1.24 | enough cells to score
Blk | 0.33 | 1.78 | 1.39 | enough cells to score
Rrp15 | 0.68 | 1.11 | 1.33 | enough cells to score
Npm3 | -1.15 | 1.59 | 1.31 | enough cells to score
Hspa5 | 1.72 | 1.59 | 1.66 | enough cells to score
Tlcd1 | 1.03 | 1.56 | 1.71 | enough cells to score
Csl | -1.47 | 1.09 | 1.23 | enough cells to score
Asns | 0.88 | 1.79 | 1.71 | enough cells to score
Krt82 | -0.38 | 1.47 | 1.41 | enough cells to score
Thra | -1.28 | 1.37 | 1.31 | enough cells to score
Hoxa1 | 0.92 | 1.5 | 1.55 | enough cells to score
Ocln | 0.18 | 1.52 | 1.39 | enough cells to score
Foxo4 | -0.07 | 1.44 | 1.33 | enough cells to score
Slc5a9 | 0.45 | 1.65 | 1.78 | enough cells to score

Hits, among the entries above:
gene | p65 translocation robust z-score | nuclear/cytoplasmic p65 ratio, rep 1 | nuclear/cytoplasmic p65 ratio, rep 2 | low cell count flag
Kcnk2 | -1.82 (active) | 1.28 | 1.2 | enough cells to score
Or5aq1 | -2.52 (active) | 1.2 | 1.27 | enough cells to score
Gapdhs | -1.89 (active) | 1.3 | 1.2 | enough cells to score
